Data reported in PubChem BioAssay AID248 (DTP/NCI, 2004).
The list does not hold the whole screen: it is rich in T/C values a quarter to a half above the control, in often repeated tests (any T/C) and in doses without a T/C. Other doses and runs of a compound stand elsewhere. T/C is the treated group as % of the vehicle group. Some doses have a count of surviving animals in place of a T/C: the source files T/C as zero there, which appears to mark a toxic dose or a test without result, not a measured value. Some doses without a T/C left all or most animals alive at the check, yet need not have been tolerated: the source hardly ever lists a survival T/C far under the control, and the zero likely stands for such cases as well. Survivors were counted at the toxicity check, usually on the fifth day, unless a day is given; later deaths do not show. Schedule codes are those of the source, read here as Q, the interval in days (D) or hours (H), X, the number of doses. Some entries hold several experiments; the results are listed from low to high. Some schedule codes hold Z or #, which are not explained here. For survival time, this PubChem deposit counts one and a half times the control or more as active, and values a quarter to a half above the control carry no call in these data; other NCI protocols may use other cut-offs. Some T/C values carry the count of animals alive at the toxicity check (mostly the fifth day); where none is given, no animal had died by that day.

Tested on: L1210 leukemia ip in BDF1 mice, survival T/C
Assay: NCI In Vivo Anticancer Drug Screen. Data for tumor model L1210 Leukemia (intraperitoneal) in B6D2F1 (BDF1) mice
Conditions: T/C endpoint: mean survival time, higher T/C = longer survival
[1] = dose: 400.0 mg/kg/injection, schedule: Q01DX009 (ip), vehicle: Klucel (hydroxypropylcellulose) (HPC)
[2] = dose: 400.0 mg/kg/injection, schedule: Q04DX002 (ip), vehicle: Klucel (hydroxypropylcellulose) (HPC)
[3] = dose: 400.0 mg/kg/injection, schedule: Q04DX003 (ip), vehicle: Klucel (hydroxypropylcellulose) (HPC)
[4] = dose: 400.0 mg/kg/injection, schedule: Q01DX009 (ip), vehicle: saline
[5] = dose: 400.0 mg/kg/injection, schedule: Q01DX001 (ip), vehicle: saline
[6] = dose: 50.0 mg/kg/injection, schedule: Q01DX009 (ip), vehicle: saline with Tween-80
[7] = dose: 100.0 mg/kg/injection, schedule: Q04DX002 (ip), vehicle: saline with Tween-80
[8] = dose: 400.0 mg/kg/injection, schedule: Q04DX003 (ip), vehicle: saline with Tween-80
[9] = dose: 200.0 mg/kg/injection, schedule: Q04DX003 (ip), vehicle: Klucel (hydroxypropylcellulose) (HPC)
[10] = dose: 200.0 mg/kg/injection, schedule: Q04DX003 (ip), vehicle: saline with Tween-80

## NC(CCl)=NCCOC12CC3CC(CC(C3)C1)C2
dose: 200.0 mg/kg/injection, schedule: Q04DX002 (ip), vehicle: saline
  survivor count: 0 of 3
dose: 400.0 mg/kg/injection, schedule: Q04DX002 (ip), vehicle: saline
  survivor count: 0 of 3

## N#Cc1ccsc1C#N
dose: 200.0 mg/kg/injection, schedule: Q04DX003 (ip), vehicle: acetone
  survivor count: 6 of 6
dose: 400.0 mg/kg/injection, schedule: Q04DX003 (ip), vehicle: acetone
  survivor count: 5 of 6

## O=C(Nc1ccc(F)c([N+](=O)[O-])c1)Oc1cc(=O)oc2ccccc12
dose: 200.0 mg/kg/injection, schedule: Q01DX009 (ip), vehicle: Klucel (hydroxypropylcellulose) (HPC)
  survivor count: 3 of 3
dose: 300.0 mg/kg/injection, schedule: Q01DX009 (ip), vehicle: Klucel (hydroxypropylcellulose) (HPC)
  survivor count: 1 of 6 and 3 of 3
[1]
  survivor count: 0 of 3 and 3 of 6

## C=CCN1CCCCC1C1(c2ccccc2)CCCC1 (stereo unspecified)
dose: 150.0 mg/kg/injection, schedule: Q01DX001 (ip), vehicle: acid diluted with saline
  survivor count: 2 of 6
dose: 300.0 mg/kg/injection, schedule: Q01DX001 (ip), vehicle: acid diluted with saline
  survivor count: 0 of 6

## O=C(c1ccccc1CO)N1CCCCC1
[2]
  survivor count: 3 of 3

## NC(=NCc1ccccc1)c1ncn(C2CCCC2)c1N
dose: 100.0 mg/kg/injection, schedule: Q01DX001 (ip), vehicle: Klucel (hydroxypropylcellulose) (HPC)
  survivor count: 1 of 6
dose: 200.0 mg/kg/injection, schedule: Q01DX001 (ip), vehicle: Klucel (hydroxypropylcellulose) (HPC)
  survivor count: 0 of 6
dose: 400.0 mg/kg/injection, schedule: Q01DX001 (ip), vehicle: Klucel (hydroxypropylcellulose) (HPC)
  survivor count: 0 of 6

## OC(CN1CCOCC1)c1ccccc1 (stereo unspecified)
[1]
  survivor count: 3 of 6
[3]
  survivor count: 3 of 6

## CC(C)C(=O)Nc1ccc([N+](=O)[O-])c(C(F)(F)F)c1
[1]
  survivor count: 2 of 6 and 2 of 3
[4]
  survivor count: 3 of 6

## OCC1OC(n2nnc3c(=S)nc[nH]c32)C(O)C1O (stereo unspecified)
dose: 25.0 mg/kg/injection, schedule: Q01DX001 (ip), vehicle: saline
  T/C: 133 % of control

## O=P(O)(c1ccccc1)c1ccccc1
[2]
  survivor count: 3 of 3

## N#CC1(C(N)=O)OC12CCS(=O)(=O)c1ccccc12 (stereo unspecified)
[5]
  survivor count: 4 of 4

## O=C(Nc1ccc(Cl)c(Cl)c1)c1ccco1
dose: 25.0 mg/kg/injection, schedule: Q01DX009 (ip), vehicle: saline with Tween-80
  T/C: 88, 95, 95 [5 of 6 alive], 109 % of control
[6]
  T/C: 87 [2 of 3 alive], 102 [5 of 6 alive], 103 % of control [2 of 3 alive]
  survivor count: 4 of 6
dose: 100.0 mg/kg/injection, schedule: Q01DX009 (ip), vehicle: saline with Tween-80
  survivor count: 2 of 3
[7]
  T/C: 97 [2 of 3 alive], 101 [5 of 6 alive], 103 % of control [4 of 6 alive]
  survivor count: 1 of 3
dose: 200.0 mg/kg/injection, schedule: Q04DX002 (ip), vehicle: saline with Tween-80
  survivor count: 1 of 6 and 1 of 3
dose: 400.0 mg/kg/injection, schedule: Q04DX002 (ip), vehicle: saline with Tween-80
  survivor count: 0 of 3 and 0 of 6

## O=C(CCN1CCCCC1)c1cccc([N+](=O)[O-])c1
dose: 100.0 mg/kg/injection, schedule: Q04DX003 (ip), vehicle: saline
  survivor count: 0 of 6
dose: 200.0 mg/kg/injection, schedule: Q04DX003 (ip), vehicle: saline
  survivor count: 0 of 6
dose: 400.0 mg/kg/injection, schedule: Q04DX003 (ip), vehicle: saline
  survivor count: 0 of 6

## CC1CN(Cc2ccc([N+](=O)[O-])cc2)CC(C)N1N (stereo unspecified)
dose: 200.0 mg/kg/injection, schedule: Q01DX005 (ip), vehicle: saline with Tween-80
  survivor count: 3 of 6
dose: 400.0 mg/kg/injection, schedule: Q01DX005 (ip), vehicle: saline with Tween-80
  survivor count: 0 of 6

## Nc1nc(N)c2cc(CNc3ccc(C(=O)NC(CCCC(=O)O)C(=O)O)cc3)ccc2n1 (stereo unspecified)
dose: 0.25 mg/kg/injection, schedule: Q01DX009 (ip), vehicle: saline
  T/C: 133 % of control
dose: 0.5 mg/kg/injection, schedule: Q01DX009 (ip), vehicle: saline
  survivor count: 6 of 6
dose: 1.0 mg/kg/injection, schedule: Q01DX009 (ip), vehicle: saline
  T/C: 128 % of control
dose: 2.0 mg/kg/injection, schedule: Q01DX009 (ip), vehicle: saline
  survivor count: 5 of 6
dose: 4.0 mg/kg/injection, schedule: Q01DX009 (ip), vehicle: saline
  survivor count: 5 of 6
dose: 4.0 mg/kg/injection, schedule: Q04DX003 (ip), vehicle: saline
  T/C: 126 % of control [5 of 6 alive]
dose: 8.0 mg/kg/injection, schedule: Q01DX009 (ip), vehicle: saline
  survivor count: 5 of 6
dose: 8.0 mg/kg/injection, schedule: Q04DX003 (ip), vehicle: saline
  T/C: 140 % of control
dose: 16.0 mg/kg/injection, schedule: Q01DX009 (ip), vehicle: saline
  survivor count: 2 of 6
dose: 32.0 mg/kg/injection, schedule: Q04DX003 (ip), vehicle: saline
  survivor count: 6 of 6
dose: 64.0 mg/kg/injection, schedule: Q04DX003 (ip), vehicle: saline
  survivor count: 5 of 6

## S=C(NCc1ccccc1)Nc1ccccc1
[8]
  survivor count: 0 of 3

## CC1=C(/C=C/C(C)=N/NC(N)=O)C(C)(C)CCC1
[4]
  survivor count: 3 of 6

## CCCC[n+]1ccc(C#N)cc1
dose: 300.0 mg/kg/injection, schedule: Q01DX001 (ip), vehicle: saline
  survivor count: 0 of 6

## Cc1c2oc3c(C)ccc(C(=O)NC4C(=O)NC(C(C)C)C(=O)N5CCCC5C(=O)N(C)CC(=O)N(C)C(C(C)C)C(=O)OC4C)c3nc-2c(C(=O)NC2C(=O)NC(C(C)C)C(=O)N3CCCC3C(=O)N(C)CC(=O)N(C)C(C(C)C)C(=O)OC2C)c(N)c1=O (stereo unspecified)
dose: 0.6 mg/kg/injection, schedule: Q04DX003 (ip), vehicle: water
  T/C: 129 and 136 % of control [5 of 6 alive]
dose: 0.9 mg/kg/injection, schedule: Q04DX003 (ip), vehicle: water
  T/C: 129 % of control
dose: 1.2 mg/kg/injection, schedule: Q04DX003 (ip), vehicle: water
  T/C: 127 % of control
dose: 2.4 mg/kg/injection, schedule: Q04DX003 (ip), vehicle: water
  survivor count: 6 of 6
dose: 4.8 mg/kg/injection, schedule: Q04DX003 (ip), vehicle: water
  survivor count: 0 of 6
dose: 6.0 mg/kg/injection, schedule: Q04DX003 (ip), vehicle: water
  survivor count: 0 of 6
dose: 9.0 mg/kg/injection, schedule: Q04DX003 (ip), vehicle: water
  survivor count: 0 of 6

## NC(N)=NN=C1CCCCC1
dose: 240.0 mg/kg/injection, schedule: Q01DX Z (ip), vehicle: saline
  survivor count: 2 of 6
dose: 480.0 mg/kg/injection, schedule: Q01DX Z (ip), vehicle: saline
  survivor count: 0 of 6

## CC1CNC(=S)S1 (stereo unspecified)
[1]
  survivor count: 3 of 6

## CC1(C)C(C#N)C(=O)N=C(N)C1C(N)=O (stereo unspecified)
[9]
  survivor count: 6 of 6
[3]
  survivor count: 5 of 6

## C#CCOP(=O)(C#CC)OCC#C
[10]
  survivor count: 0 of 6
[8]
  survivor count: 0 of 6

## O=C(O)c1cc(Br)c(Cl)c(Br)c1
[2]
  survivor count: 1 of 3

## CC(C)(C)N=Cc1ccccc1O.CC(C)(C)N=Cc1ccccc1O.[Cu]
dose: 100.0 mg/kg/injection, schedule: Q04DX003 (ip), vehicle: Klucel (hydroxypropylcellulose) (HPC)
  survivor count: 0 of 6
[9]
  survivor count: 2 of 6
[3]
  survivor count: 0 of 6

## O=CNc1ccccc1Cc1ccccc1
[5]
  survivor count: 1 of 4

## CC(N)COCc1ccccc1 (stereo unspecified)
dose: 100.0 mg/kg/injection, schedule: Q01DX009 (ip), vehicle: saline
  survivor count: 2 of 6
[10]
  survivor count: 1 of 6
[8]
  survivor count: 0 of 6

## Cc1cc(N(C)C)nc(SCc2ccc(F)cc2)n1
dose: 100.0 mg/kg/injection, schedule: Q01DX Z (ip), vehicle: methylcellulose (MC)
  survivor count: 5 of 6

## COc1ccc2nc3cc(Cl)ccc3c(Nc3ccc(O)c(CN4CCN(C)CC4)c3)c2c1
dose: 300.0 mg/kg/injection, schedule: Q04DX003 (ip), vehicle: other
  survivor count: 3 of 6
